PubChem BioAssay AID743454 – Peter MacCallum Cancer Centre – 2014

- Test: 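Search for knock-downs that restore vorinostat killing in resistant colon cancer cells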 (primary screen)
- System: human HCT116-VR colon cancer cells, selected for vorinostat resistance
- Knock-down reagent: siRNA pool against human genes, 40 nM siRNA pool
- Timing: vorinostat for 24 h, read-out about 72 h after transfection
- Treatment: vorinostat at 2.5 µM final
- Measured: 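Two measures, CellTiter-Fluor viability and luminescent caspase 3/7 activity, each as fold change against same-plate mock wells, mean of duplicates, then screen-wide robust z-score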
- Scale: viability robust z-score: higher = more viable cells than screen typical; caspase robust z-score: higher = more caspase 3/7 activity than screen typical
- Rule for the call: 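a knock-down is a hit when classed RV1 or RV2 for lowered viability, or CA1 or CA2 for caspase activation; those lethal without drug were dropped; hits were retested singly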
The deposit covers about 18,000 reagents; this is a random part of them. Over the whole deposit, 450 (2.5%) are marked active. 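Single biological run; no consistent viability z cut-off exists, so the class columns, not z-scores, define the calls.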

| Target gene | viability hit class | caspase hit class | viability robust z-score | caspase robust z-score | Outcome |
| --- | --- | --- | --- | --- | --- |
| FBXL18 (F-box and leucine rich repeat protein 18) | no change | no change | 0.2 | 4.3 | inactive |
| CCDC122 (coiled-coil domain containing 122) | no change | no change | -0.16 | 2.07 | inactive |
| CXCL16 (C-X-C motif chemokine ligand 16) | no change | no change | 0.84 | 1.07 | inactive |
| MRPL32 (mitochondrial ribosomal protein L32) | no change | no change | 0.84 | -0.35 | inactive |
| CPA4 (carboxypeptidase A4) | no change | no change | 0.36 | -0.76 | inactive |
| MAP4K1 (mitogen-activated protein kinase kinase kinase kinase 1) | no change | no change | -1.56 | 1 | inactive |
| SLC22A7 | no change | no change | -1.04 | 0.78 | inactive |

In a second layout: entries from further up.
CXCL16 (C-X-C motif chemokine ligand 16)
- viability hit class: no change
- caspase hit class: no change
- viability robust z-score: 0.84
- caspase robust z-score: 1.07
- Outcome: inactive

MRPL32 (mitochondrial ribosomal protein L32)
- viability hit class: no change
- caspase hit class: no change
- viability robust z-score: 0.84
- caspase robust z-score: -0.35
- Outcome: inactive

The list goes on.
| Target gene | viability hit class | caspase hit class | viability robust z-score | caspase robust z-score | Outcome |
| --- | --- | --- | --- | --- | --- |
| ITGBL1 (integrin subunit beta like 1) | no change | no change | 1.2 | -0.64 | inactive |
| TOMM34 (translocase of outer mitochondrial membrane 34) | no change | no change | 0.08 | 2.59 | inactive |
| KIF5A (kinesin family member 5A) | no change | no change | 1.4 | 0.16 | inactive |
| GPR180 (G protein-coupled receptor 180) | no change | no change | -0.22 | -0.43 | inactive |
| MRPL49 (mitochondrial ribosomal protein L49) | no change | no change | -0.79 | -0.71 | inactive |
| TWIST1 (twist family bHLH transcription factor 1) | no change | no change | -1.17 | -1.06 | inactive |
| GIMAP2 (GTPase, IMAP family member 2) | no change | no change | 0.54 | -0.13 | inactive |
| MYL7 (myosin light chain 7) | no change | no change | -1.18 | 4.39 | inactive |
| CTDSPL (CTD small phosphatase like) | no change | no change | 1.68 | 0.08 | inactive |
| DUX1 (double homeobox 1) | no change | no change | 0.68 | -0.72 | inactive |
| MYH3 (myosin heavy chain 3) | no change | no change | 0.46 | -0.45 | inactive |
| HMG20B (high mobility group 20B) | no change | no change | 1.1 | -0.29 | inactive |
| RAB6C (RAB6C, member RAS oncogene family) | no change | no change | 0.05 | -0.86 | inactive |
| MACO1 (macoilin 1) | no change | no change | 0.47 | -0.57 | inactive |
| VANGL2 (VANGL planar cell polarity protein 2) | no change | no change | -0.48 | 1.14 | inactive |
| HSD17B10 (hydroxysteroid 17-beta dehydrogenase 10) | no change | no change | -0.36 | 1.38 | inactive |
